Patent US20250084405

Chains of the proteins cited; added tags and fusions are not shown. Chains listed by the source or under a name are the forms on record and can include a tag or linker.
MYC:MAX heterodimer (c-MYC / MAX) (Homo sapiens), one chain, as listed by the source, chain 1 of 2: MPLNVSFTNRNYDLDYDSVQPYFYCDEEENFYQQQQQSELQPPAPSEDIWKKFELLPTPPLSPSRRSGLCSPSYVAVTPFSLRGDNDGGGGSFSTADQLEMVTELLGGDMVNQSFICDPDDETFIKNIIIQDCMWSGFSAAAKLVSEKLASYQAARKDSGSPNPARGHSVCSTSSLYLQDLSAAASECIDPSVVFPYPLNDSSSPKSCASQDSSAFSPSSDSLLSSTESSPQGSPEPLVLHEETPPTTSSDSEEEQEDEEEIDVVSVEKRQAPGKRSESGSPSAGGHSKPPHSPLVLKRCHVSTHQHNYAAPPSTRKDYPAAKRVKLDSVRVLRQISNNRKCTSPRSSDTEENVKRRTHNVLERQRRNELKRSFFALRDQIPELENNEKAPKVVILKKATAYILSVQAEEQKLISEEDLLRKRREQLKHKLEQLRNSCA
MYC:MAX heterodimer (c-MYC / MAX) (Homo sapiens), one chain, as listed by the source, chain 2 of 2: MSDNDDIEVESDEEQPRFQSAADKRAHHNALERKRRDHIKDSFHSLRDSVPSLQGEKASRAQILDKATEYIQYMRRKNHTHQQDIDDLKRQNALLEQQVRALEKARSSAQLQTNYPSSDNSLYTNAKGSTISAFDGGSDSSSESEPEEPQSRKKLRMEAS

Test system: MYC:MAX heterodimer (c-MYC / MAX) (Homo sapiens)
Assay: EMSA
Conditions: 7.5 nM probe, 90-100 ug translated protein, protein translated in vitro, label: IRDye 700

Sequence	binding result (binding abolished by unlabeled competitor, variant of FGF7 5' UTR wild-type probe)	binding result (complex observed only with mutated probe)
CACACAAGCACACACGTGCTCACACACAGAGAG (double strand) [FGF7 5' UTR mutant probe (E-box CACGTG)]	binds	
CACACAAGCACACACGCGCTCACACACAGAGAG (double strand) [FGF7 5' UTR wild-type probe]		no binding

For at least one entry, the source does not settle the construct or the ends of the probe. A negative result means that nothing was seen under these conditions.
